In patent publication US20250066347A1, “SUBSTITUTED THIAZOLIDINEDIONE DERIVATIVE COMPOUND, AND PHARMACEUTICAL COMPOSITION FOR PREVENTING OR TREATING CANCER, COMPRISING SAME” (MEDIFIC, INC., priority 2021, published 2025):
Some entries share one result that the patent states for a list of compounds. At least one structure is not confirmed: it was looked up by name or label, or the drawing left a doubt.

Tested on: SREBP
Assay: Cell-based assay system using a 6xSRE reporter vector (copGFP intensity) in HOG-GSC-6xSRE-copGFP_HIGH cells
Details: separated GFP-high cells, vs DMSO control
Description: First, as shown in (a) of FIG. 1, SRE(5′-ATCACCCCAC-3′) 6 copies which are DNA seCuences to which a transcription factor, SREBP active form bonds were inserted into a minimal CMV promoter 5′ front end of a pGreenfire-Lenti-reporter vector to produce a 6xSRE reporter vector. The 6xSRE reporter vector is a vector system in which a minimal CMV promoter is activated only when SREBP in an activated form bonds to 6xSRE and copGFP is expressed, and after the vector was introduced to HOG-GSC which is a brain tumor stem cell, separation into a GFP high cell and a GFP low cell through FACS sorting was performed. Each of SREBP1a and SREBP1c in an active form was overexpressed in separated GFP-low cells (b of FIG. 1), and it was measured therefrom whether the expression amount of GFP was increased. As a result, it was confirmed that the overexpression of SREBP1a and SREBP1c active forms increased GFP expression by 43.30% and 93.49%, in separated GFP-low cells (c of FIG. 1). The separated GFP-high cells were treated with each of fatostatin and FGH10019 known to inhibit activity of DMSO and SREBP which was a control group to measure a change in the expression amount of GFP, and, as a result, it was confirmed that when treated with known materials, fatostatin and FGH10019, the expression of GFP was inhibited by up to 50% (d of FIG. 1). […]

## CCCc1cc(-c2nc(-c3ccc(NS(C)(=O)=O)cc3)cs2)ccn1 [FGH10019, reference compound]
  inhibition of GFP expression: up to 50%

## CCCc1cc(-c2nc(-c3ccc(C)cc3)cs2)ccn1 [fatostatin, reference compound]
  inhibition of GFP expression: up to 50%
